Source: the supplement of paper PMC12067093, “Discovery and optimisation of a covalent ligand for TRIM25 and its application to targeted protein ubiquitination” (Chemical Science, 2025)
This is one part of the list.

The chains behind the UniProt entries cited, without tags or fusion partners. Where a name states a change or a piece, a line headed by the entry shows the natural chain unless it says otherwise.
UniProt O75534: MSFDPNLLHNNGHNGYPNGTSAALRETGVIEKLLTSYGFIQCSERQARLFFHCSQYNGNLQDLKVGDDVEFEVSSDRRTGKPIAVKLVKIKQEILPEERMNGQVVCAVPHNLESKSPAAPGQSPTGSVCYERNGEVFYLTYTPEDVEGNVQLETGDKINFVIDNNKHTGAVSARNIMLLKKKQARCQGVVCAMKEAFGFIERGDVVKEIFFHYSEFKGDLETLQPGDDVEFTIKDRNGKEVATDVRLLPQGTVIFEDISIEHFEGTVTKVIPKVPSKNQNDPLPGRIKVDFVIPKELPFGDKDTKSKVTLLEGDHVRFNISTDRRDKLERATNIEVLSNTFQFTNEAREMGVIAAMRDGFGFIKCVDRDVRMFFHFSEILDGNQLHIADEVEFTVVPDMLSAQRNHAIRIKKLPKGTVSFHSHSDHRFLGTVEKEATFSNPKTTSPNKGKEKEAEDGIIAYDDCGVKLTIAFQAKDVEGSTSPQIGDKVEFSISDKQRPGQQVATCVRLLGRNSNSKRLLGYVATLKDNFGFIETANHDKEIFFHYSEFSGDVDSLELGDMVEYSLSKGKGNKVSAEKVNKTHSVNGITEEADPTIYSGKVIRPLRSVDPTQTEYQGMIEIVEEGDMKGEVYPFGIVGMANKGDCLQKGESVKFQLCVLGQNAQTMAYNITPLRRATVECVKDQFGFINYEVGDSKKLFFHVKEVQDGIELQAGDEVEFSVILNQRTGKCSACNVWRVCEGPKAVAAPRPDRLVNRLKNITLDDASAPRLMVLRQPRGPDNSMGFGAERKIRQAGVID
UniProt Q6UXH1: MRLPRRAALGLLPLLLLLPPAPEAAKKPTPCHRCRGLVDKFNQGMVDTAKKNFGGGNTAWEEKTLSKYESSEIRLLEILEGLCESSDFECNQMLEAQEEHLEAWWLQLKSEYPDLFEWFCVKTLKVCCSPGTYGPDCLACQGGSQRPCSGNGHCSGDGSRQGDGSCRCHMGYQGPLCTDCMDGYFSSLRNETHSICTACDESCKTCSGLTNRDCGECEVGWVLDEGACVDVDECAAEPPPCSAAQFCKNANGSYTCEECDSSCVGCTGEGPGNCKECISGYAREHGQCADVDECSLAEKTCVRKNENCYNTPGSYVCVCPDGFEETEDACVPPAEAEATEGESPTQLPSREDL
UniProt Q9Y5B0: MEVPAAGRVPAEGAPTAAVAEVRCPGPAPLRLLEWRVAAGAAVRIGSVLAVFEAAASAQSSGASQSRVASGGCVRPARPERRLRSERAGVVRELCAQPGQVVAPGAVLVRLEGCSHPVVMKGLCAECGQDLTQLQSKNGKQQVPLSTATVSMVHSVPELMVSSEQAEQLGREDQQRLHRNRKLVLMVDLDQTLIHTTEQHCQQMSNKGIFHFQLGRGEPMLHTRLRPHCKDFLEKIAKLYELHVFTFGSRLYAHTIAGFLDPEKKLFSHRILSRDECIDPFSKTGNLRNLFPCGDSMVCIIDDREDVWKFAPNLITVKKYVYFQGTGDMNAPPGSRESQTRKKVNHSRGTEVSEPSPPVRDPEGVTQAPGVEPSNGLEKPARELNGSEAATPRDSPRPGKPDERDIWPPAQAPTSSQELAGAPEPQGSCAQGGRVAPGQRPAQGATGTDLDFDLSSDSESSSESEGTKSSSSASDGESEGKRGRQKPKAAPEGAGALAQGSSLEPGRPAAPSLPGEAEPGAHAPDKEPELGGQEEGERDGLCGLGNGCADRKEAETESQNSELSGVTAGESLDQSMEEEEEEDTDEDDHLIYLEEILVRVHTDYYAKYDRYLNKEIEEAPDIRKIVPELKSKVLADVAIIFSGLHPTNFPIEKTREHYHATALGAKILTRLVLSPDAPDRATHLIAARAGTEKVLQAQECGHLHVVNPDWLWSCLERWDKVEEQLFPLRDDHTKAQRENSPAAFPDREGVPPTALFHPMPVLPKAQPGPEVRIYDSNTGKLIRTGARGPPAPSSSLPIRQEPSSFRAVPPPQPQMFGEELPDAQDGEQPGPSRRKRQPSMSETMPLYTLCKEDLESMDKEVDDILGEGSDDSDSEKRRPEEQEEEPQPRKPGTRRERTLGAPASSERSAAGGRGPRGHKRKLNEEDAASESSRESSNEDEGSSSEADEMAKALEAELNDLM
UniProt P21291: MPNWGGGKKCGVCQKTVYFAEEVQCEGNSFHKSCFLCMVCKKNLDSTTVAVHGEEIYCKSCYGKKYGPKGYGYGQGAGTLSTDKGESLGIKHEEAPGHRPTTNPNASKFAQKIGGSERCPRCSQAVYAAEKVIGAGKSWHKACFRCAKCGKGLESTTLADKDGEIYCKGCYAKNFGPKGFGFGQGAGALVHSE
UniProt P52943: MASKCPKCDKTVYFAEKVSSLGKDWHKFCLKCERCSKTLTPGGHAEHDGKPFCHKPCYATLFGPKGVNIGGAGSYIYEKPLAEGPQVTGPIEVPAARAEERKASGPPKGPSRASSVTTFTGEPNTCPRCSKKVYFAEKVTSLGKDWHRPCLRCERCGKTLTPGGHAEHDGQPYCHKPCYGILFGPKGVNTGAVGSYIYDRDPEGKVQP
UniProt P36551: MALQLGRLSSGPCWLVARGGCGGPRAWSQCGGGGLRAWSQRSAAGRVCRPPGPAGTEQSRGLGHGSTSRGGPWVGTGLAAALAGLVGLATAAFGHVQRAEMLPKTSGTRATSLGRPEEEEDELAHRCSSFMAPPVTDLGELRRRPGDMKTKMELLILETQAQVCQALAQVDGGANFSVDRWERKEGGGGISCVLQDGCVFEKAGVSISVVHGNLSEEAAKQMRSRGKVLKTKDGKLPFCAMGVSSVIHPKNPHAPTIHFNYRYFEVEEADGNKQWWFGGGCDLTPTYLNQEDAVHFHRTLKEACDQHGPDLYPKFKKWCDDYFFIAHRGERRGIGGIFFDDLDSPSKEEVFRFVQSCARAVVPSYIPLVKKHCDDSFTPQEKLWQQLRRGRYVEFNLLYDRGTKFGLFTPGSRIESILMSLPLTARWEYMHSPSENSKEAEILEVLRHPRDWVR
UniProt Q12996: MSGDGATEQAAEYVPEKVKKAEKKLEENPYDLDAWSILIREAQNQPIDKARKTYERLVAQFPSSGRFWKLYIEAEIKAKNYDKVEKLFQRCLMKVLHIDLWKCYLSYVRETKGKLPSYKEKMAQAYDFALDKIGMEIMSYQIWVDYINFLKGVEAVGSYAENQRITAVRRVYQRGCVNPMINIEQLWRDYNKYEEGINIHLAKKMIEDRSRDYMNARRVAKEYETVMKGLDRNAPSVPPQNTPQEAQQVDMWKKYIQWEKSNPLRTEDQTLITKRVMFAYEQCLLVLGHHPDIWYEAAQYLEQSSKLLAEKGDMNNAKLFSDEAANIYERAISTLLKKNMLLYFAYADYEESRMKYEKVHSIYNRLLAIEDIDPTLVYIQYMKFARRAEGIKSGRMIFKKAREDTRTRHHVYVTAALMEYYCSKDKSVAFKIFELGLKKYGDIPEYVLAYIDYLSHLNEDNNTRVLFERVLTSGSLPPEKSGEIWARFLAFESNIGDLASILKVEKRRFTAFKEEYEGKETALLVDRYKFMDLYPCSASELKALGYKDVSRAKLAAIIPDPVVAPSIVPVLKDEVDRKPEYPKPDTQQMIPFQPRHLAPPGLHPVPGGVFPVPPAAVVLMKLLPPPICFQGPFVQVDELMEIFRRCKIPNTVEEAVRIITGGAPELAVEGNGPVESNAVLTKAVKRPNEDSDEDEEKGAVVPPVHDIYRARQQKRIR
UniProt P55060: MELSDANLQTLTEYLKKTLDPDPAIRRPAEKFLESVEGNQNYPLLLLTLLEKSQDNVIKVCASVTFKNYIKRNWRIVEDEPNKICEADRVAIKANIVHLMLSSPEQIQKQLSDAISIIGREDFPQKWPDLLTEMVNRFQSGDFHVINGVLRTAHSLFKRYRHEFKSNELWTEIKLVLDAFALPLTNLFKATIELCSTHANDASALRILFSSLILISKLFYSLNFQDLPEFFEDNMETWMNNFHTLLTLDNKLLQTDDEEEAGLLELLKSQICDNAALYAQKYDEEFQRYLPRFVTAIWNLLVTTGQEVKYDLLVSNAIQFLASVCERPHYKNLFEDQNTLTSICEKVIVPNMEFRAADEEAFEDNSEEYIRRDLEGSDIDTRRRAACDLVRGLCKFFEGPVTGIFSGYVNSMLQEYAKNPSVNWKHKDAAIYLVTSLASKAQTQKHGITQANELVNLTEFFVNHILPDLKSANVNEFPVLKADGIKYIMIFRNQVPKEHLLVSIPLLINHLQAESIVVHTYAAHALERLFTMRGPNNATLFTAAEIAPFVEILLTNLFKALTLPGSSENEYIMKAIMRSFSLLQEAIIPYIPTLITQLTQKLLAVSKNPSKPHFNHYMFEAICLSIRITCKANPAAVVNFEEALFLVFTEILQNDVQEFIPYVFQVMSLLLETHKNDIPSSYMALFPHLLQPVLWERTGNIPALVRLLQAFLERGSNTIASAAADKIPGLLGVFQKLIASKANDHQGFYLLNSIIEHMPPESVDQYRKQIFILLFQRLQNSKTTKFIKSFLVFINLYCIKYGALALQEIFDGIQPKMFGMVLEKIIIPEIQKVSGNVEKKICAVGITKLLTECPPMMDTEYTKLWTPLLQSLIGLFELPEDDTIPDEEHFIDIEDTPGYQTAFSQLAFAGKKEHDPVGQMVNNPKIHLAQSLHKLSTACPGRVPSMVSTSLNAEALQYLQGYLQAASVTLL
UniProt Q9BR76, whole entry, looked up: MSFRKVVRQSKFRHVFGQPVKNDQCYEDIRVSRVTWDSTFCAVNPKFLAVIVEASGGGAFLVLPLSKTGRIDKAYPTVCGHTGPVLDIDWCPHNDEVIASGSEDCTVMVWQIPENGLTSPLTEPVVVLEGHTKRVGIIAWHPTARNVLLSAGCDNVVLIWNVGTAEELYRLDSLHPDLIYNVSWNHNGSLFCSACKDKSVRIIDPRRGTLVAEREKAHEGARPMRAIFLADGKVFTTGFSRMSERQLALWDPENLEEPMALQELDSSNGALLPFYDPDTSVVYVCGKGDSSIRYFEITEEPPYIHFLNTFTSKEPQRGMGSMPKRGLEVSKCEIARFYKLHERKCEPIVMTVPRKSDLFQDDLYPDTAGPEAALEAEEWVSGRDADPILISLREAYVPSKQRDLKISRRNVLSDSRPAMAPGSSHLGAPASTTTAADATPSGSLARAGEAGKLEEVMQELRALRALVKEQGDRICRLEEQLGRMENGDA
UniProt P23786: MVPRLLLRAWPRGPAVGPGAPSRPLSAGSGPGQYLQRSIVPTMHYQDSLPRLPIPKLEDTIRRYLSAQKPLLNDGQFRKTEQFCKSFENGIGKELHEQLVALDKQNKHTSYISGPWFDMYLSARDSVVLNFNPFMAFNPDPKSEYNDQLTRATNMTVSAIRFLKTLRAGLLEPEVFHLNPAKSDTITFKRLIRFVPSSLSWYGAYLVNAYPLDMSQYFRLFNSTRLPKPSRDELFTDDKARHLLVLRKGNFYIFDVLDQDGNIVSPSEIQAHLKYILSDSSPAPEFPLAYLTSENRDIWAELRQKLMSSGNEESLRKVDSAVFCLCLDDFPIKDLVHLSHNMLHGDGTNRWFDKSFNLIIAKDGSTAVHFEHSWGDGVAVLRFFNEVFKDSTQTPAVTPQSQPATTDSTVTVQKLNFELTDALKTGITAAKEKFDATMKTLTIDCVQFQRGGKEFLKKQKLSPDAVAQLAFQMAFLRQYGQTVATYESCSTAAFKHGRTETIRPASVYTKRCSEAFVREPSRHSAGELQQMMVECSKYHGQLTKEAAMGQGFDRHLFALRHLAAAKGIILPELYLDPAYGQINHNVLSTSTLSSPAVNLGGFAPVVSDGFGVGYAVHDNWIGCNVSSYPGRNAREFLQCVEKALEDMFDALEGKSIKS
UniProt P50238: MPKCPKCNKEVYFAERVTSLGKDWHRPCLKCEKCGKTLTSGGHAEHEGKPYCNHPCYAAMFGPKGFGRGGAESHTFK
UniProt P01034: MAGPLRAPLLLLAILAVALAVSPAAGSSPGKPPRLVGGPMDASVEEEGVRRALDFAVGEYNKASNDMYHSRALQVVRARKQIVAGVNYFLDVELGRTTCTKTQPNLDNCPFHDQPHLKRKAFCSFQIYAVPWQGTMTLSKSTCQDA
UniProt O75131: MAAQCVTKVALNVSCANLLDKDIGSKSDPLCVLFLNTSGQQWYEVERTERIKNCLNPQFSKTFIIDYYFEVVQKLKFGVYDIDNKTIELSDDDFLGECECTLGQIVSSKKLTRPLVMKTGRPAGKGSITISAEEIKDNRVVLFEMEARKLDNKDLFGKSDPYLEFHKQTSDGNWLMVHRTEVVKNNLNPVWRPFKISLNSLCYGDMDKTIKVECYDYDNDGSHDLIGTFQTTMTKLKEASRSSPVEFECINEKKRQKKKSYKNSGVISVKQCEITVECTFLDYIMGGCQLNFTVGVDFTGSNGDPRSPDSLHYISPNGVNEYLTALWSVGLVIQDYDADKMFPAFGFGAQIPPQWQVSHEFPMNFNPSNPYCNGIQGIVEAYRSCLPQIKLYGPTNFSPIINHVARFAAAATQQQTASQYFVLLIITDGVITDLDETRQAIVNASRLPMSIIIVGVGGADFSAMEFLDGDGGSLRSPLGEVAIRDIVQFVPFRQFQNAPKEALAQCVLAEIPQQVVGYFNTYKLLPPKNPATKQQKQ

Compound: Cc1cc(ccc1-c1ccccc1)C(=O)N1CCCN(CC1)C(=O)CCl [compound 10]
Experiment: probe-labelled cysteine peptide fold change vs DMSO (competition) (log2 fold change); higher = less target engagement (more negative = stronger competition)
Details: THP-1, incubation time: 4 h
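Also: competitive profiling in live THP-1 cells: cysteine peptides tagged with an iodoacetamide desthiobiotin (IA-DTB) probe, intensity after compound treatment relative to DMSO-treated cells.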

Target	probe-labelled cysteine peptide fold change (10 µM)	probe-labelled cysteine peptide fold change (50 µM)
CPSF2_Q9P2I0_20_LTTLSGVQEESALCYLLQVDEFR (UniProt Q9P2I0)	0.265	0.409
CSDE1_O75534_645_GDCLQK (UniProt O75534)	0.00859	-0.107
CRELD2_Q6UXH1_294_EHGQCADVDECSLAEK (UniProt Q6UXH1)	-0.231	-0.125
CPSF2_Q9P2I0_34_FLLDCGWDEHFSMDIIDSLRK (UniProt Q9P2I0)	0.381	0.187
CTDP1_Q9Y5B0_277_DECIDPFSK (UniProt Q9Y5B0)	-0.165	-0.467
CPNE8_Q86YQ8_143_CGTIILTAEELNCCR (UniProt Q86YQ8)	0.0235	-0.436
CPNE2_Q96FN4_388+401_VSHEFAINFNPTNPFCSGVDGIAQAYSACLPHIR (UniProt Q96FN4)	0.402	0.37
CSRP1_P21291_167_GLESTTLADKDGEIYCK (UniProt P21291)	-0.0814	-1.06
CRIP2_P52943_150_DWHRPCLR (UniProt P52943)	0.923	1.04
CPOX_P36551_281_QWWFGGGCDLTPTYLNQEDAVHFHR (UniProt P36551)	0.151	0.314
CRYBG3_Q68DQ2_2762_SLKPIDYVFEEPSISLFALEHCEGR (UniProt Q68DQ2)	0.0989	-0.101
CSTF3_Q12996_422_HHVYVTAALMEYYCSK (UniProt Q12996)	0.0714	0.482
CSNK2B_P67870_23_GNEFFCEVDEDYIQDK (UniProt P67870)	-0.0762	0.0745
CSE1L_P55060_85_ICEADR (UniProt P55060)	-0.0868	0.138
CTNNA2_P26232_792_IALYCHQLNICSK (UniProt P26232)	-0.0537	-0.0193
CORO7_P57737_325_QALAVMSCEVLR (UniProt P57737)	-0.0212	-0.181
CTDP1_Q9Y5B0_277_ILSRDECIDPFSK (UniProt Q9Y5B0)	-0.0626	-0.31
CS_O75390_211_LPCVAAK (UniProt O75390)	-0.139	0.0879
CSK_P41240_422_NCWHLDAAMRPSFLQLR (UniProt P41240)	-0.00143	-0.153
CPT1A_P50416_586_FCLTYEASMTR (UniProt P50416)	0.266	0.203
CRACR2A_Q9BSW2-2_494_CSEEEEVSDQGVQGQIPEAPPLK (UniProt Q9BSW2)	-0.0427	-0.0955
COX5B_P10606_91+93_IVGCICEEDNTSVVWFWLHK (UniProt P10606)	0.124	-0.102

Target	probe-labelled cysteine peptide fold change (10 µM)	probe-labelled cysteine peptide fold change (50 µM)
CSTF3_Q12996_536_FMDLYPCSASELK (UniProt Q12996)	-0.0224	0.0893
CPPED1_Q9BRF8_197_HCQHAIVFQHIPLFLESIDEDDDYYFNLSK (UniProt Q9BRF8)	-0.00915	0.0877
CSMD2_Q7Z408-3_2_CDAHLR (UniProt Q7Z408)	0.077	-2.14
CORO1B_Q9BR76_25_NDQCYEDIR (UniProt Q9BR76)	-0.0464	-0.0083
CTNNA1_P35221_228_NVPILYTASQACLQHPDVAAYK (UniProt P35221)	0.249	0.236
CPSF4_O95639_162_RVICVNYLVGFCPEGPSCK (UniProt O95639)	-0.239	0.014
CPT1A_P50416_742_FSCPETDSHR (UniProt P50416)	-0.133	-0.0423
CRELD1_Q96HD1_135_QQEAPDLFQWLCSDSLK (UniProt Q96HD1)	-0.0388	0.279
CSNK2B_P67870_140_CMDVYTPK (UniProt P67870)	0.083	-0.242
CPNE1_Q99829_30_SDPLCVLLQDVGGGSWAELGR (UniProt Q99829)	0.326	0.0741
CPT2_P23786_445_TLTIDCVQFQR (UniProt P23786)	-0.132	-0.0126
CRELD2_Q6UXH1_120_SEYPDLFEWFCVK (UniProt Q6UXH1)	0.199	-0.0635
CPOX_P36551_319_WCDDYFFIAHR (UniProt P36551)	0.0777	0.126
CRLF3_Q8IUI8_336_DSIGVCAEK (UniProt Q8IUI8)	-0.131	-0.0686
CPSF6_Q16630_476_VLISSLQDCLHGIESK (UniProt Q16630)	0.221	-0.0558
CRYBG1_Q9Y4K1_541_SPEAVGSECPSR (UniProt Q9Y4K1)	-0.333	-0.462
CTCF_P49711_497_CDQCDYACR (UniProt P49711)	-0.108	0.295
CTNNBL1_Q8WYA6_408_EHEEHVCSILASLLR (UniProt Q8WYA6)	-0.0454	-0.206
CSTF2T_Q9H0L4_150_LCVQNSHQEAR (UniProt Q9H0L4)	0.0738	0.0145
CRELD1_Q96HD1_105_SDFECHR (UniProt Q96HD1)	-0.0218	0.227
CPSF3_Q9UKF6_626_RLEIMLQDIFGEDCVSVK (UniProt Q9UKF6)	-0.0218	0.198
CRABP1_P29762_130_ELANDELILTFGADDVVCTR (UniProt P29762)	0.082	0.307

Target	probe-labelled cysteine peptide fold change (10 µM)	probe-labelled cysteine peptide fold change (50 µM)
CPSF1_Q10570_324_ITLDCAQATFISYDK (UniProt Q10570)	0.134	0.335
CRIP1_P50238_56_TLTSGGHAEHEGKPYCNHPCYAAMFGPK (UniProt P50238)	-0.447	-1.41
CPNE8_Q86YQ8_196_SNEDGSFTICHK (UniProt Q86YQ8)	0.205	0.413
CPNE8_Q86YQ8_118_HDFLGQVFCTLGEIVGSQGSR (UniProt Q86YQ8)	0.211	0.228
CTIF_O43310_556_MLCPSESMLTR (UniProt O43310)	-0.353	-0.427
CORO6_Q6QEF8_344_CEPIIMTVPR (UniProt Q6QEF8)	0.129	0.119
CPT2_P23786_326_VDSAVFCLCLDDFPIK (UniProt P23786)	0.0902	0.0791
CRYZL1_O95825_40_ACALSQINTK (UniProt O95825)	0.179	0.22
CORO7_P57737_790_TECDVR (UniProt P57737)	-0.0936	-0.139
CTPS2_Q9NRF8_216_GLGLSPDLIVCR (UniProt Q9NRF8)	0.594	0.585
CSE1L_P55060_61_VCASVTFK (UniProt P55060)	-0.071	0.0214
CPSF3_Q9UKF6_345_ELFESWCTDK (UniProt Q9UKF6)	-0.0082	0.319
CRELD2_Q6UXH1_166_QGDGSCR (UniProt Q6UXH1)	-0.195	-0.265
COX20_Q5RI15_29_LLGFLDVENTPCAR (UniProt Q5RI15)	-0.0256	-0.0857
CSDE1_O75534_464_EAEDGIIAYDDCGVK (UniProt O75534)	-0.255	-0.122
CTNNA1_P35221_438_LIEVANLACSISNNEEGVK (UniProt P35221)	0.411	0.513
CRIP1_P50238_28_DWHRPCLK (UniProt P50238)	0.251	-0.232
CSTF2_P33240_62_GYGFCEYQDQETALSAMR (UniProt P33240)	-0.421	-0.43
CSNK1D_P48730_241_KMSTPIEVLCK (UniProt P48730)	-0.189	-0.828
CST3_P01034_109_TQPNLDNCPFHDQPHLK (UniProt P01034)	-0.359	-0.43
CTNNAL1_Q9UBT7_104_EEINIACIEAK (UniProt Q9UBT7)	0.116	0.384
CSTF1_Q05048_310_AHDGAEVCSAIFSK (UniProt Q05048)	0.0734	0.151

Target	probe-labelled cysteine peptide fold change (10 µM)	probe-labelled cysteine peptide fold change (50 µM)
CTAGE5_O15320_579_GPGNPLDHQITNERGESSCDR (UniProt Q96PC5+O15320)	0.125	-0.191
CRYBB1_P53674_80_RAEFSGECSNLADR (UniProt P53674)	-0.0898	0.0816
CORO7_P57737_75_RVAHLGCHSDLVTDLDFSPFDDFLLATGSADR (UniProt P57737)	0.465	0.469
CRTAP_O75718_273_DFYLSIADHYVEVLECK (UniProt O75718)	-0.146	1.08
CSK_P41240_122_ESTNYPGDYTLCVSCDGK (UniProt P41240)	0.0217	0.145
CPD_O75976_195_EGDCGFGDGGPSGASGR (UniProt O75976)	0.18	0.211
CSRP1_P21291_34_SCFLCMVCK (UniProt P21291)	0.1	-0.00146
CPSF3_Q9UKF6_498_RNFNYHILSPCDLSNYTDLAMSTVK (UniProt Q9UKF6)	-0.121	-0.947
CPVL_Q9H3G5_271_QCHECIEHIR (UniProt Q9H3G5)	0.223	0.3
CPSF2_Q9P2I0_765_IGLEGCLCQDFYR (UniProt Q9P2I0)	0.113	-0.169
CRIP2_P52943_57_PCYATLFGPK (UniProt P52943)	0.019	-0.567
CPNE1_Q99829_4+14_AHCVTLVQLSISCDHLIDK (UniProt Q99829)	-0.148	-0.173
CSDE1_O75534_730_CSACNVWR (UniProt O75534)	0.0262	-0.27
CPNE3_O75131_54_NCLNPQFSK (UniProt O75131)	-0.151	-0.406
CORO1B_Q9BR76_345_KCEPIVMTVPR (UniProt Q9BR76)	0.0177	-0.24
CTPS1_P17812_491_CLEEQGLK (UniProt P17812)	0.00947	-0.332
CTC1_Q2NKJ3_535_NAHNEILEEPHHCPLQK (UniProt Q2NKJ3)	-0.144	-0.283
CPQ_Q9Y646_233_IPTACITVEDAEMMSR (UniProt Q9Y646)	-0.0128	0.149
CPNE3_O75131_249_SSPVEFECINEK (UniProt O75131)	-0.104	-0.112
CORO7_P57737_790_TECDVREVELMR (UniProt P57737)	-0.178	-0.995
